Our source for the binding values is publication PMC10733300, “ANKS1A regulates LDL receptor-related protein 1 (LRP1)-mediated cerebrovascular clearance in brain endothelial cells” (Nature Communications, 2023).

Chains of the proteins cited; added tags and fusions are not shown. Residues count along the entry.
UniProt Q91ZX7, residues 20-4545: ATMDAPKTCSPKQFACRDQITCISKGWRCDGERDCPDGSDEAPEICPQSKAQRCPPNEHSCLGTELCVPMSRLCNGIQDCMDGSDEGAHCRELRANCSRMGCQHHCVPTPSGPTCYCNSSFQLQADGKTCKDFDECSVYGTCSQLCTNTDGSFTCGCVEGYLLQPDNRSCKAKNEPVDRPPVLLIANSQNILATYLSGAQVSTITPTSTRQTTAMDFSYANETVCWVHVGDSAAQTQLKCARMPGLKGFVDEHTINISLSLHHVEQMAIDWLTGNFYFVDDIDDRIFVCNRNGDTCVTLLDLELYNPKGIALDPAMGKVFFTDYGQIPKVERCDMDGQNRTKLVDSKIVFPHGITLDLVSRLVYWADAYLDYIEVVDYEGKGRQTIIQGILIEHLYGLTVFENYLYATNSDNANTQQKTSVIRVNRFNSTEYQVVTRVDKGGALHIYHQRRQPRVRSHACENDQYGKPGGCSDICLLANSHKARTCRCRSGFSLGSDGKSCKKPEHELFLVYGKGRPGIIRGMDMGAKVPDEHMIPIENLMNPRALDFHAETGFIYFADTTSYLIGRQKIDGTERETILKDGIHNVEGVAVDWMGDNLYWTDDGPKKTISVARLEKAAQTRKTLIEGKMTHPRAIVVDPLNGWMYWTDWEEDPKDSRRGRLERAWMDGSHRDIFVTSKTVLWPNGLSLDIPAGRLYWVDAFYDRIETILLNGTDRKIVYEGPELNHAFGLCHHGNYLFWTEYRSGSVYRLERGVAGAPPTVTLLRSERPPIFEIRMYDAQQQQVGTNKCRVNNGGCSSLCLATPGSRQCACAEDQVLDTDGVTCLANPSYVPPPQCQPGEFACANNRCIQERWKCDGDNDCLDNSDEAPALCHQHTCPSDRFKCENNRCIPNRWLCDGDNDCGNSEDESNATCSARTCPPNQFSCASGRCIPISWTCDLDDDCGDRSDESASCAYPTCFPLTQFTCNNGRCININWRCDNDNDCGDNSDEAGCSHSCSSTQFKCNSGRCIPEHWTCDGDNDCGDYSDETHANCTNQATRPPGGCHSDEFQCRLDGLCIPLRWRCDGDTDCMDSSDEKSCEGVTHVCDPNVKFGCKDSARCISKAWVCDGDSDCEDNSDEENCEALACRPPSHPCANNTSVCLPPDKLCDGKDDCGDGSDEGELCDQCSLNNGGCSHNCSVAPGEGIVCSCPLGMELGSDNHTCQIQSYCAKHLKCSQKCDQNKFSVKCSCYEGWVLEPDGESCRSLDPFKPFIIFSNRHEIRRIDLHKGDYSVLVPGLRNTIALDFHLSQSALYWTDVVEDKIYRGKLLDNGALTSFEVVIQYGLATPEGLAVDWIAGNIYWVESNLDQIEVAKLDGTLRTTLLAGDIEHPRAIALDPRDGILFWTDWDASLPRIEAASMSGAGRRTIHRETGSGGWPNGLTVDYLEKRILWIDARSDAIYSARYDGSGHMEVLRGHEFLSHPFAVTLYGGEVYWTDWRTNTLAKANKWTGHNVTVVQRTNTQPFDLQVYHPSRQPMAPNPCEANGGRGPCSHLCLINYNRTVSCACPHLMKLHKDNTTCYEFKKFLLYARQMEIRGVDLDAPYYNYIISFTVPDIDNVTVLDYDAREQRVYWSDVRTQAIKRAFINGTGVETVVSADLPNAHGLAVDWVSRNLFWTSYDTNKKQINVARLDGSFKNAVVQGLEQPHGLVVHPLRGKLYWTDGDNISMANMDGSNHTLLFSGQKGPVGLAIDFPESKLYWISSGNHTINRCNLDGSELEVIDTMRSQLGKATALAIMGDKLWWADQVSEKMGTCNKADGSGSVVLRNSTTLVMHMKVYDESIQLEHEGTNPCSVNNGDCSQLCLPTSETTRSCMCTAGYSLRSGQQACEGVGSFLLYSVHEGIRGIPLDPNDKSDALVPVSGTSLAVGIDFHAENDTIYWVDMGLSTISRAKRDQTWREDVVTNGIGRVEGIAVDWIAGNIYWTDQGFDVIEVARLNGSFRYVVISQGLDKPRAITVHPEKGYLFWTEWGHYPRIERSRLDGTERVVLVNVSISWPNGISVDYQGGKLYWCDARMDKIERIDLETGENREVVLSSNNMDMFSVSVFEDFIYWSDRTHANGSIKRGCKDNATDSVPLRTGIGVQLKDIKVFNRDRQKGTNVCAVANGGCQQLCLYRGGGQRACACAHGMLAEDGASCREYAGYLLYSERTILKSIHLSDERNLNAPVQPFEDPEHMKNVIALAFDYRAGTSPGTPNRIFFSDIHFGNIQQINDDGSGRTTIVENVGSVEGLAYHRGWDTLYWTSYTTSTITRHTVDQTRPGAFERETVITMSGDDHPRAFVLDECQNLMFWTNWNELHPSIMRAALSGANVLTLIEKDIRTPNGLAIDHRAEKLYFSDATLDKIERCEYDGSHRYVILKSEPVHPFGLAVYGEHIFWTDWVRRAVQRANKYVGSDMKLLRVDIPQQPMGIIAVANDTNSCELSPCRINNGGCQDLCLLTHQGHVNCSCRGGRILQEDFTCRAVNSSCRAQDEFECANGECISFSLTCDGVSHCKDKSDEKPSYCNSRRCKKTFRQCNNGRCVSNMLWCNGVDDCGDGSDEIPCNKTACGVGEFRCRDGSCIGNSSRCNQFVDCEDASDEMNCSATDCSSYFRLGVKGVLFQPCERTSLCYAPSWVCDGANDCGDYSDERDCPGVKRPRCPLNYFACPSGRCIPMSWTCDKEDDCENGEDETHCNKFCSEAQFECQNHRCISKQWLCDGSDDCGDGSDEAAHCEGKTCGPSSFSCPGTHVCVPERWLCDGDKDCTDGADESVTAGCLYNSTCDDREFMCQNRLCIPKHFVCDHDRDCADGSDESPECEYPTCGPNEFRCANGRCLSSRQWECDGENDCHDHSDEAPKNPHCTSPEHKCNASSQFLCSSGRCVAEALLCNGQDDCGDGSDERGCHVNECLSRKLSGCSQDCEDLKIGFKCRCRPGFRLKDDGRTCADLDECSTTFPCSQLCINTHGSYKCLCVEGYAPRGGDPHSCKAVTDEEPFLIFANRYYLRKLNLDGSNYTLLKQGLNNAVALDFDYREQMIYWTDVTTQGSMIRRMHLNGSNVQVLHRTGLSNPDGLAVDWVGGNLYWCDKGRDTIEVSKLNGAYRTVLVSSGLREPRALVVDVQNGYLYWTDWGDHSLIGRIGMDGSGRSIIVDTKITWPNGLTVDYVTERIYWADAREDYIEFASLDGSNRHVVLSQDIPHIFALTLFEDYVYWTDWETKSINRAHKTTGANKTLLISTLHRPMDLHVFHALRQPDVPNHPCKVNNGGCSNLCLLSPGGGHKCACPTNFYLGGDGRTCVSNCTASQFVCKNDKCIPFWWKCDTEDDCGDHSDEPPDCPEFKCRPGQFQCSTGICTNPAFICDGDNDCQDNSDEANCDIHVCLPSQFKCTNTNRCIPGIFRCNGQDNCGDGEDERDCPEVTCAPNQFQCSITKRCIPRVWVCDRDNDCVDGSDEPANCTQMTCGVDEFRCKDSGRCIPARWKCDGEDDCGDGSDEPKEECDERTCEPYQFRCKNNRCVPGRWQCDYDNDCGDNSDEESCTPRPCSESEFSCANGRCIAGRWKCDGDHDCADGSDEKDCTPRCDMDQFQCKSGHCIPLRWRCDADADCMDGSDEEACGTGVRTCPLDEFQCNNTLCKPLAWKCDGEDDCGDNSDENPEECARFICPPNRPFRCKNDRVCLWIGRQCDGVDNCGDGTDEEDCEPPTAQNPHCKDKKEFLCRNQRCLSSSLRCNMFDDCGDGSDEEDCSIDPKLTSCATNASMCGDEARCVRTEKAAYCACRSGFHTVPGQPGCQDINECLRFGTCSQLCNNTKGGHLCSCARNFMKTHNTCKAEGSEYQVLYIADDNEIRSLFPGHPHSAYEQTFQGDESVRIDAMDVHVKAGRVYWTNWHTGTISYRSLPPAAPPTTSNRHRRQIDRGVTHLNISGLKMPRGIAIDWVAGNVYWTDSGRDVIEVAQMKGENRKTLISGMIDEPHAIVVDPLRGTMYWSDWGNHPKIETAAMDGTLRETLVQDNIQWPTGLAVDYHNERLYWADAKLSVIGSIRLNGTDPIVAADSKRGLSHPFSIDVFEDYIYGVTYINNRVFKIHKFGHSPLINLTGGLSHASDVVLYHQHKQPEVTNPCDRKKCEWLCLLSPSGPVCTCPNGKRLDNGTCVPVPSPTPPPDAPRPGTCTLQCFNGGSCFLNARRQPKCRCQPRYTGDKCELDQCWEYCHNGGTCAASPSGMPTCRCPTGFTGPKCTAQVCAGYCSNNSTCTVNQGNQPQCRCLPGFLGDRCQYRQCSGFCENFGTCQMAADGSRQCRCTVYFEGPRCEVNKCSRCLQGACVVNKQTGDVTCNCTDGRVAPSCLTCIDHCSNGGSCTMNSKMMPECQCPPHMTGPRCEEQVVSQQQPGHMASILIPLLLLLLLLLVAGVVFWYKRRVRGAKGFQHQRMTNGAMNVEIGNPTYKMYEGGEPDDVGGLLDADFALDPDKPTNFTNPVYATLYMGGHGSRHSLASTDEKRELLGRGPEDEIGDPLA

No constants are given. Whether binding was seen depends on the method and setting. Binding seen in cells or lysates may run through a third protein. Some binding calls cover weakened binding; strength is not graded here.

The experiment addresses LDL receptor-related protein 1 (LRP1), endogenous mouse (mouse (endogenous in primary brain endothelial cells and brain sections)) (UniProt Q91ZX7). As to the kind of experiment: co-IP; mouse primary brain endothelial cells co-cultured with astrocytes and pericytes in a transwell format for 3 days; lysed in PLC lysis buffer; anti-LRP1 antibody 90 min on ice, Protein A-Sepharose 4B 30 min at 4 °C; washed twice with HNTG; gradient SDS-PAGE, immunoblot. (A western blot detects proteins with antibodies after separation by electrophoresis.)

B1: ankyrin repeat and SAM domain containing 1A (ANKS1A), endogenous mouse (protein, UniProt P59672 1-1150)
chain: MGKEQELLEAARTGHLPAVEKLLSGKRLSSGFGGGGGGSGSGGGSGGGGLGSSSHPLSSLLSMWRGPNVNCVDSTGYTPLHHAALNGHRDVVEVLLRNDALTNVADSKGCYPLHLAAWKGDAQIVRLLIQQGPSHTRVNEQNALEIRELKKYGPFDPYINAKNNDNETALHCAAQYGHTEVVKALLEELTDPTMRNNKFETPLDLAALYGRLEVVKLLLGAHPNLLSCSTRKHTPLHLAARNGHKAVVQVLLDAGMDSNYQTEMGSALHEAALFGKTDVVQILLAAGIDVNIKDNRGLTALDTVRDLPSQKSQQIAALIEDHMTGKRSVKEVDRTSTAQLPLLSNTDAIAPMSQGSMEKTVTELILHFDTHADEEGPYEALYNAVSCHSLDSTASGRSSDRDSMNKEAEATGTRAAGVRPRERPPPPAKPPPDEEEEERVDKKYFPLAASEGLAVRPRIQSSAPQEEEEHPYELLLTAETKKLGTTDGRTEDHRQSGSGRSQDSVEGQDGQVPEQFSGLLHGSSPVCEVGQDPFQLLTAPSQSHPESSQQDACHEASMQLEEPGVQGTEPPQPGVPDQSKRVGLPAGLTALASRTYLDALTHTVPLRPAGAEEEDQSGPRSRAPPTSKPKAELKLSRSLSKSDSDLLTCSPTEDATMGSRSESLSNCSIGKKRLEKSPSFASEWDEIEKIMSSIGEGIDFSQEQQKISGSRTLEQSVGEWLESIGLQQYESKLLLNGFDDVRFLGSNVMEEQDLREIGISDPQHRRKLLQAARSLPKVKALGYDGVSPTSVPSWLDSLGLQDYVHSFLSSGYSSIDTVKNLWELELVNVLKVHLLGHRKRIIASLADRPYEEPPQKPPRFSQLRCQDLISQTSSPLSQNDSCTGRSADLLLPSADTSRRRHDSLPDPGTASRADRFRVQEEPSETKLTLRPPSLAAPYAPVQSWQHQPEKLIFESCGYEANYLGSMLIKDLRGTESTQDACAKMRKSTEHMKKIPTIILSITYKGVKFIDASNKNVIAEHEIRNISCAAQDPEDLCTFAYITKDLQTSHHYCHVFSTVDVNLTYEIILTLGQAFEVAYQLALQAQKSRTMAASAASMIETKSSKPVPKPRVGMRKSALEPPDSDQEAPSHASVSWIVDPKPDSKRSLSTN
Consider B1, for which the binding result is “binds”.
